{
  "source": "patent US12533390B2",
  "about": "“Methods and compositions for treatment of Endothelin B receptor expressing tumors” (ENB Therapeutics, Inc., priority 2015, dated 2026)",
  "tested_on": "SKMEL28 human melanoma cells",
  "experiment": "SKMEL28 human melanoma xenograft in mice, tumor weight and lung metastases",
  "type": "in vivo",
  "description": "BQ788 inhibits melanoma growth and metastasis (FIGS. 4A and 4B). […] Mice were implanted with 1×10^6 SKMEL28 human melanoma cells. Tumors were established for 10 days until palpable then 120 ng ([…]) BQ788 dissolved in DMSO was injected IP 3× per week x 6 weeks. Mice were then sacrificed and lungs harvested and tumors weighed. A 75% reduction in tumor weight was observed.",
  "note": "For at least one compound, name, drawing or mass did not settle the structure.",
  "data": [
    {"smiles": "CCCC[C@@H](NC(=O)[C@@H](Cc1cn(C(=O)OC)c2ccccc12)NC(=O)[C@H](CC(C)(C)C)NC(=O)N1[C@H](C)CCC[C@@H]1C)C(=O)[O][Na+]", "note": "[BQ788]", "values": [
      {"measurement": "apoptosis in melanoma tumor cells", "result": "induces apoptosis"}
    ]}
  ]
}
